The nature of this test: qHTS Assay for Modulators of Lamin A Splicing. The settings on record: HeLa LMNA splicing GFP/RFP minigene ratio, 48 h. In a few lines:
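S3 HeLa stable clones carrying a lamin A-EGFP splicing minigene plus DsRed2 were seeded at 600 cells/well in Opti-MEM with 2% FBS, pin-dosed and incubated 48 h at 37°C. Acumen cytometry (488 nm) gave the GFP/RFP total-intensity ratio.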

Setting [1] is: measured here: RFP viability control channel.
Where [2] appears, read: measured here: GFP splicing reporter channel.

The other results are listed elsewhere or left out. These are further read-outs of the screen, such as a control signal, another cell line or another target. No call is given for them. Compounds called inactive in the main read-out are mostly missing here. Words in brackets tell the shape of the fitted curve; partial curves, single points and poor fits give uncertain potencies.

One may read the AC50 as the midpoint of the concentration-response curve, whichever way the signal moves. Take `CCOc1cc(CNc2ccc(S(N)(=O)=O)cc2)cc(Cl)c1OC`: under setting [1], the AC50 was 35.5 µM [rising, single point].

With `NNC(=O)CNC(c1ccccc1)c1cc(Br)ccc1NC(=O)CCN1CCOCC1` (stereo not drawn), the AC50 is 35.5 µM [falling, single point] under setting [2] and 35.5 µM [falling, single point] under setting [1].

As to `C=CCn1c(SCC(=O)Nc2sccc2C(N)=O)nc2sc(CC)cc2c1=O`, the AC50 under setting [1] is 6.31 µM [rising, partial curve, poor fit].

For `COc1ccc(CCNC(=O)NC23CC4CC(CC(C4)C2)C3)cc1`, the AC50 under setting [1] was 35.5 µM [rising, single point].

As for `CC(Oc1ccccc1)C(=O)N/N=C/c1ccccn1` (stereo not drawn), the half-maximal activity concentration (AC50) under setting [1] was 7.08 µM [falling, partial curve].

In the case of `C/C(=N/NC(=O)c1ccc(Br)o1)c1ccc(C)o1`, under setting [1], the AC50 was 0.126 µM [rising, full curve, poor fit].

As for `Cc1ccc(C(=O)c2ccc(N3CCN(C)CC3)c([N+](=O)[O-])c2)cc1`, under setting [1], the AC50 is 12.6 µM [rising, single point].

Take `COc1ccc(Cc2noc(CN(C)CCN3CCc4ccccc4C3)n2)cc1OC`: the AC50 under setting [1] is 0.0141 µM [falling, full curve, poor fit].

Turning to `Cc1ccc(-c2c(C(=O)N(C)Cc3ccccc3)oc(=O)c3ccccc23)cc1`, the AC50 under setting [2] is 15.8 µM [rising, single point].

Turning to `COc1ccc(C(=O)c2c(C(F)(F)F)oc3c2C(=O)c2ccccc2C3=O)cc1OC`, the AC50 runs as follows: under setting [2], 3.55 µM [falling, full curve]; under setting [1], 4.47 µM [falling, full curve].

As to `O=c1cc(-c2cccc(F)c2)[nH]c2ccccc12`, the AC50 runs as follows: under setting [2], 5.62 µM [rising, single point]; under setting [1], 3.55 µM [rising, partial curve].

For the molecule `Cc1oc(C(C)(C)C)cc1C(=O)Nc1ccc2c(c1)OCCO2`, the AC50 was 12.6 µM [rising, partial curve] under setting [2] and 15.8 µM [rising, partial curve] under setting [1].

For `CC(C)(C)Nc1nc2nonc2nc1NC(C)(C)C`, the AC50 under setting [1] is 31.6 µM [rising, single point].

As for `CC(C)NS(=O)(=O)c1ccc(NC(=O)C(C)Oc2ccc(C(=O)c3ccccc3)cc2)cc1` (stereo not drawn), the AC50 was 31.6 µM [falling, single point] under setting [2] and 35.5 µM [falling, single point] under setting [1].

With `O=C(COC(=O)c1cc[n+]([O-])cc1)Nc1cccc(Cl)c1Cl`, the AC50 under setting [2] was 0.00447 µM [rising, full curve, poor fit].

As for `Cc1cc(NO)c(C(C)C)cc1N=O`, the AC50 runs as follows: under setting [2], 14.1 µM [rising, single point]; under setting [1], 25.1 µM [rising, single point].

Consider `COc1ccc(NC(=O)C2CCCN(c3c4c(nc5ncnn35)CCC4)C2)cc1OC` (stereo not drawn), for which the AC50 runs as follows: under setting [2], 14.1 µM [rising, single point]; under setting [1], 15.8 µM [rising, single point].

For `Cc1ccc(S(=O)(=O)c2c(C)nn(C(C)(C)C)c2OC(=O)C2CCCC2)cc1`, under setting [1], the AC50 is 35.5 µM [falling, single point].

For `CSc1cccc(NC(=O)C2CCCN(S(=O)(=O)c3ccc4c(c3)CCCN4C(C)=O)C2)c1` (stereo not drawn), the AC50 under setting [2] was 11.2 µM [falling, partial curve] and the AC50 under setting [1] is 22.4 µM [falling, single point].

`Cc1ccc(C(=O)Cn2c(C(=O)/C=C/c3ccccc3)nc3ccccc32)cc1`: the AC50 runs as follows: under setting [2], 15.8 µM [falling, partial curve]; under setting [1], 14.1 µM [falling, partial curve].

`Cc1cc(C(=O)OCC(=O)Nc2ccccc2)c(C)o1`: the AC50 under setting [2] was 35.5 µM [falling, single point] and the AC50 under setting [1] was 35.5 µM [falling, single point].

For `COC(=O)c1ccccc1NC(=O)/C=C/c1cc(OC)c(OC)c(OC)c1`, the AC50 under setting [1] was 25.1 µM [rising, single point].

As to `CC(CN1CCOCC1)C(=O)c1ccccc1` (stereo not drawn), the AC50 under setting [1] was 31.6 µM [rising, single point].

Take `COc1ccc2nccc(C(=O)O)c2c1`: the AC50 under setting [1] is 14.1 µM [falling, single point].

On to `Cc1ccc2cc3cc(C(=O)NCCCN4CCc5ccccc5C4)oc3nc2c1`, for which the AC50 under setting [1] was 11.2 µM [rising, single point].

Consider `Cc1ccccc1Nc1ccc(S(=O)(=O)N2CCOCC2)cc1[N+](=O)[O-]`, for which the AC50 under setting [1] is 35.5 µM [rising, single point].

As to `COc1cccc(/C=N/Nc2ncnc(Cl)c2N)c1O`, the AC50 under setting [2] was 35.5 µM [falling, single point] and the AC50 under setting [1] is 31.6 µM [falling, single point].

Consider `Cc1cc(NC(=O)CSCC(=O)N(c2cccc(Cl)c2)C(C(=O)NC2CCCCC2)c2ccc(O)c(O)c2)no1` (stereo not drawn), for which the AC50 under setting [1] is 28.2 µM [rising, single point].

For the molecule `CC1(C)CC(=O)C=C(NCCCNC2CCCCC2)C1`, the AC50 under setting [1] is 6.31 µM [rising, single point].

Consider `CN(C)c1nc(-c2ccccn2)nnc1-c1ccccc1`, for which the AC50 is 2.51 µM [rising, single point] under setting [2] and 2.82 µM [rising, full curve] under setting [1].

As for `COc1ccc(/C=C/C(=O)OCC(=O)Nc2ccc(Cl)cn2)cc1`, the AC50 under setting [1] is 0.708 µM [falling, partial curve, poor fit].

As to `N#Cc1cc2c(nc1SCc1nc3ccccc3[nH]1)CCC2`, under setting [1], the AC50 was 0.501 µM [rising, partial curve, poor fit].

Take `CCSc1nc(-c2cccnc2)ccc1C#N`: the AC50 under setting [2] is 2.82 µM [rising, partial curve, poor fit] and the AC50 under setting [1] is 0.158 µM [rising, full curve].

As to `COc1ccc(/C=N/NC(=O)c2cc(-c3ccccc3OC(C)C)nc3ccccc23)cc1CN1CCOCC1`, under setting [1], the AC50 is 15.8 µM [rising, single point].

`c1ccc(-c2cc(-c3nnc4n3N=C(c3ccc5ccccc5c3)CS4)[nH]n2)cc1`: the AC50 under setting [2] was 35.5 µM [falling, single point].

Regarding `Cc1cc(C)c(C#N)c(N2CCN(CCOc3ccc(Cl)cc3)CC2)n1`, the AC50 by setting is: under setting [2], 20 µM [rising, partial curve]; under setting [1], 25.1 µM [rising, single point].

`O=C1NS(=O)(=O)c2ccccc21`: the AC50 under setting [1] was 0.00562 µM [rising, full curve, poor fit].

In the case of `COCCOC(=O)c1[nH]c2c(c1C)C(=O)CC(c1ccccc1)C2` (stereo not drawn), the AC50 under setting [1] is 1 µM [rising, full curve].

As for `NS(=O)(=O)c1cc2c(cc1Cl)NC(C1CC3C=CC1C3)NS2(=O)=O` (stereo not drawn), the half-maximal activity concentration (AC50) is, setting by setting: under setting [2], 15.8 µM [falling, partial curve, poor fit]; under setting [1], 8.91 µM [falling, partial curve, poor fit].

As for `CN(CCC#N)c1ncnc2scc(-c3ccccc3)c12`, the AC50 under setting [1] is 15.8 µM [rising, single point].

In the case of `Nc1cccc(CCc2nc3cc4ccccc4cc3[nH]2)c1`, under setting [1], the concentration at half-maximal activity (AC50) was 2.82 µM [rising, full curve].

For `O=C(Nc1ccc2c(c1)OCCO2)c1ccc(Cl)c(S(=O)(=O)N2CCCCC2)c1`, the AC50 under setting [1] is 11.2 µM [rising, partial curve].

As for `O=C(N/N=C/c1ccccc1)c1[nH]c2ccc(Br)cc2c1-c1ccccc1`, the AC50 under setting [1] was 7.08 µM [rising, partial curve].

Consider `Cc1ccc(S(=O)(=O)Nc2ccc3c(c2)CCCN3C(=O)c2cccs2)cc1C`, for which the AC50 under setting [1] was 0.0501 µM [falling, full curve, poor fit].

Consider `CC(=O)NC1=NC(=O)/C(=C/c2cc(C)n(-c3ccc(NC(C)=O)cc3)c2C)S1`, for which the AC50 is 1 µM [falling, full curve, poor fit] under setting [2] and 2.82 µM [falling, partial curve, poor fit] under setting [1].

Consider `COc1ccc(CCNC2=NCCS2)cc1`, for which, under setting [2], the AC50 was 12.6 µM [rising, single point].

For the molecule `COc1ccc(NS(=O)(=O)c2ccc(NC(=O)c3ccc(CN4CCOCC4)cc3)cc2)cc1`, the AC50 by setting is: under setting [2], 4.47 µM [falling, single point]; under setting [1], 1.41 µM [falling, partial curve].

Consider `CCc1ccc(CNC(=O)c2ccc(-n3c(C)cc4c3CCC(C)C4)cc2)cc1` (stereo not drawn), for which the AC50 under setting [1] was 35.5 µM [falling, single point].

Turning to `CN(Cc1nccn1C)C(=O)CC1C(=O)NCCN1CC(c1ccccc1)c1ccccc1` (stereo not drawn), the AC50 by setting is: under setting [2], 35.5 µM [falling, single point]; under setting [1], 0.00447 µM [falling, full curve, poor fit].

As for `COc1ccc(-c2nnc(SCC(=O)NCc3cccs3)n2C(C)C)cc1`, under setting [2], the AC50 was 11.2 µM [rising, partial curve, poor fit].

Take `CN(Cc1ccccc1)c1nc2c(c(=O)[nH]c(=O)n2C)n1CCCc1ccccc1`: the AC50 was 11.2 µM [rising, single point] under setting [2] and 12.6 µM [rising, single point] under setting [1].

For `COc1ccc(NC(=O)CN2CCC3(O)CCCCC3C2c2cc(OC)ccc2OC)cc1` (stereo not drawn), the AC50 under setting [1] was 14.1 µM [rising, single point].

Consider `Cn1nnnc1SCc1csc(Nc2ccccc2)n1`, for which the AC50 by setting is: under setting [2], 11.2 µM [rising, single point]; under setting [1], 31.6 µM [rising, single point].

As for `O=C(CSc1nnc(COc2ccccc2)n1-c1ccccc1)c1cccs1`, the AC50 by setting is: under setting [2], 12.6 µM [rising, partial curve]; under setting [1], 22.4 µM [rising, single point].

Take `O=C(c1ccc(Br)cc1)c1cc(-c2ccccn2)c(N2CCOCC2)s1`: under setting [1], the AC50 was 15.8 µM [rising, single point].

Consider `COc1ccc(Cl)cc1NC(=S)Nc1ccccc1F`, for which the AC50 under setting [2] is 0.126 µM [rising, full curve, poor fit] and the AC50 under setting [1] was 0.00282 µM [rising, full curve].

These data come from PubChem BioAssay AID1487 (National Center for Advancing Translational Sciences (NCATS), 2009).
